Laboratory results as given in article PMC11236118.
Results are given in words; binding and its absence hold for the method and conditions named. Some results given as binding are weak or reduced against the parent protein; the word gives no strength.

The chains behind the UniProt entries cited, without tags or fusion partners. Residues count along the entry.
UniProt Q29443, residues 20-704: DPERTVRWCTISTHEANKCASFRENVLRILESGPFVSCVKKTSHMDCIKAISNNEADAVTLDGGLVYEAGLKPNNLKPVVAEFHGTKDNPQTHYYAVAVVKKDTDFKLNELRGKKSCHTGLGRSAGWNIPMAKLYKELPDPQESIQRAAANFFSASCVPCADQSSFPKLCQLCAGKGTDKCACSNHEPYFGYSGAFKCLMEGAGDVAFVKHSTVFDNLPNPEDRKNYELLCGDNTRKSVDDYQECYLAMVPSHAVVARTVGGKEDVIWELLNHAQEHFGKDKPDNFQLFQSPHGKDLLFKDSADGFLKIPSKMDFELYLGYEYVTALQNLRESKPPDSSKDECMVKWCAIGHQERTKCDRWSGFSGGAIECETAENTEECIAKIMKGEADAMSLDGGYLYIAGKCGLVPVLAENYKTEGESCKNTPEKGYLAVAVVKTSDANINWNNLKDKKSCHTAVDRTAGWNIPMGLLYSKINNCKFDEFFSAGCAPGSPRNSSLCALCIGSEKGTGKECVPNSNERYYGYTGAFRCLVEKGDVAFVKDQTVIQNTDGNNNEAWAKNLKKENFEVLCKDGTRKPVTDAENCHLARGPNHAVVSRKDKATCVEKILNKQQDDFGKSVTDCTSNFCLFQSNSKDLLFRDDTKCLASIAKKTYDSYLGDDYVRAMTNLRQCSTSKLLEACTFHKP

How the values were obtained:
Assay in all cases: binding of FITC-holotransferrin to cells, fluorescence measured after Pronase digestion; 10^8 washed cells with 100 ug FITC-holotransferrin (bovine) in TDB on ice for 15 minutes, washed; read out as sites/cell; only the binder purified
[1] = target: Transferrin receptor (ESAG6/ESAG7) on TbGT15^-/- (TbGnTII) null mutant cells (Trypanosoma brucei brucei (endogenous in bloodstream form mutant cells)) (UniProt Q8WPU1)
[2] = target: Transferrin receptor (ESAG6/ESAG7) on TbGT10^-/- null mutant cells (Trypanosoma brucei brucei (endogenous in bloodstream form mutant cells)) (UniProt Q8WPU1)
[3] = target: Transferrin receptor (ESAG6/ESAG7) on TbGT11^-/- (TbGnTI) null mutant cells (Trypanosoma brucei brucei (endogenous in bloodstream form mutant cells)) (UniProt Q8WPU1)

Measured: binding

FITC-holotransferrin (bovine) (from UniProt Q29443 20-704) (ligand)
binds: all assays above
